Record: PubChem BioAssay AID1259405 (NCATS, 2018)
Purpose: 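Silenced genes that increase secreted GFP made by CHO cells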 (primary screen). System: Chinese hamster CHO-K1 ovary cells with stable secreted eGFP expression. Reagents: single siRNA against mouse genes, 0.8 pmol siRNA per well (2 µl of 400 nM stock). Time to read-out: 3 days. Read-out: 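Percent of the per-plate non-targeting control median for intracellular GFP per well by laser scanning cytometry and for cell viability by ATP luminescence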. Reading the numbers: GFP, % of control: higher = more GFP per well, higher productivity; viability (ATP), % of control: higher = more viable cells (more ATP). Active means: 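Called active when intracellular GFP, relative to negative control, is at or above 120%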.
In all, the deposit lists about 50,000 reagents; below is an unselected part. About 4,000 of all reagents (8%) count as active. 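Mouse siRNA library applied to hamster cells; one well for each siRNA.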 Unmarked entries are inactive. Reagents against one gene are numbered here.

What is on record for Il4i1 (interleukin 4 induced 1) #1?
GFP, % of control: 85.4; viability (ATP), % of control: 85.1

Which result is listed for Il4i1 (interleukin 4 induced 1) #2?
GFP, % of control: 63.4; viability (ATP), % of control: 81.1

For Il4i1 (interleukin 4 induced 1) #3, what does the deposit list?
GFP, % of control: 55.1; viability (ATP), % of control: 73.5

What is on record for Or13c7c (olfactory receptor family 13 subfamily C member 7C) #1?
GFP, % of control: 44.5; viability (ATP), % of control: 44

With Or13c7c (olfactory receptor family 13 subfamily C member 7C) #2, what was measured?
GFP, % of control: 77.3; viability (ATP), % of control: 98.6

Which result is listed for Or13c7c (olfactory receptor family 13 subfamily C member 7C) #3?
GFP, % of control: 60.3; viability (ATP), % of control: 64.4

For Tars1 (threonyl-tRNA synthetase 1) #1, how do the results read?
GFP, % of control: 89.3; viability (ATP), % of control: 74.4

For Tars1 (threonyl-tRNA synthetase 1) #2, how do the results read?
GFP, % of control: 78.2; viability (ATP), % of control: 73.3

What is on record for Tars1 (threonyl-tRNA synthetase 1) #3?
GFP, % of control: 73.6; viability (ATP), % of control: 95.8

What did the screen give for Trim21 (tripartite motif-containing 21) #1?
GFP, % of control: 60.5; viability (ATP), % of control: 68.5

With Trim21 (tripartite motif-containing 21) #2, how do the results read?
GFP, % of control: 97.5; viability (ATP), % of control: 106

With Trim21 (tripartite motif-containing 21) #3, what does the deposit list?
GFP, % of control: 76.9; viability (ATP), % of control: 117

With Serpina3k (serine (or cysteine) peptidase inhibitor, clade A, member 3K) #1, how do the results read?
GFP, % of control: 66.8; viability (ATP), % of control: 87

With Serpina3k (serine (or cysteine) peptidase inhibitor, clade A, member 3K) #2, what does the deposit list?
GFP, % of control: 90; viability (ATP), % of control: 51.1

How did the screen score Serpina3k (serine (or cysteine) peptidase inhibitor, clade A, member 3K) #3?
GFP, % of control: 89.8; viability (ATP), % of control: 102

For Sstr2 (somatostatin receptor 2) #1, how do the results read?
GFP, % of control: 51.7; viability (ATP), % of control: 52

How did the screen score Sstr2 (somatostatin receptor 2) #2?
GFP, % of control: 70.9; viability (ATP), % of control: 74.7

Which result is listed for Sstr2 (somatostatin receptor 2) #3?
GFP, % of control: 96.3; viability (ATP), % of control: 89.1

Which result is listed for Prss44 (serine protease 44) #1?
GFP, % of control: 58; viability (ATP), % of control: 38.3

What did the screen give for Prss44 (serine protease 44) #2?
GFP, % of control: 87.9; viability (ATP), % of control: 107

With Prss44 (serine protease 44) #3, how do the results read?
GFP, % of control: 82.9; viability (ATP), % of control: 96.4

For Esr2 (estrogen receptor 2 (beta)) #1, what was measured?
GFP, % of control: 49.6; viability (ATP), % of control: 72.8

What did the screen give for Esr2 (estrogen receptor 2 (beta)) #2?
GFP, % of control: 72.4; viability (ATP), % of control: 81.8

For Esr2 (estrogen receptor 2 (beta)) #3, what does the deposit list?
GFP, % of control: 73; viability (ATP), % of control: 85.7

For Pex3 (peroxisomal biogenesis factor 3) #1, what does the deposit list?
GFP, % of control: 123 (active); viability (ATP), % of control: 88.8

How did the screen score Pex3 (peroxisomal biogenesis factor 3) #2?
GFP, % of control: 83.3; viability (ATP), % of control: 99.2

For Pex3 (peroxisomal biogenesis factor 3) #3, what does the deposit list?
GFP, % of control: 109; viability (ATP), % of control: 131

With Septin4 (septin 4) #1, what does the deposit list?
GFP, % of control: 95.4; viability (ATP), % of control: 78.6

For Septin4 (septin 4) #2, what does the deposit list?
GFP, % of control: 48.2; viability (ATP), % of control: 51.6

With Rps11 (ribosomal protein S11) #1, how do the results read?
GFP, % of control: 46.6; viability (ATP), % of control: 24.6

Which result is listed for Rps11 (ribosomal protein S11) #2?
GFP, % of control: 107; viability (ATP), % of control: 92.8

How did the screen score Rps11 (ribosomal protein S11) #3?
GFP, % of control: 87.8; viability (ATP), % of control: 63.4

What is on record for Nat10 (N-acetyltransferase 10) #1?
GFP, % of control: 119; viability (ATP), % of control: 91.1

What did the screen give for Nat10 (N-acetyltransferase 10) #2?
GFP, % of control: 110; viability (ATP), % of control: 137

How did the screen score Nat10 (N-acetyltransferase 10) #3?
GFP, % of control: 142 (active); viability (ATP), % of control: 91.7

What did the screen give for Snai1 (snail family zinc finger 1) #1?
GFP, % of control: 33.8; viability (ATP), % of control: 90.3

What is on record for Snai1 (snail family zinc finger 1) #2?
GFP, % of control: 66.5; viability (ATP), % of control: 85.7

With Timm8a2 (translocase of inner mitochondrial membrane 8A2) #1, what does the deposit list?
GFP, % of control: 83.1; viability (ATP), % of control: 96.6

What is on record for Timm8a2 (translocase of inner mitochondrial membrane 8A2) #2?
GFP, % of control: 164 (active); viability (ATP), % of control: 72.5

With Timm8a2 (translocase of inner mitochondrial membrane 8A2) #3, what does the deposit list?
GFP, % of control: 106; viability (ATP), % of control: 104

Looked up above.
For “GFP, % of control”, Timm8a2 (translocase of inner mitochondrial membrane 8A2) #1 is entered as 83.1
Prss44 (serine protease 44) #2, GFP, % of control → 87.9
Value for Timm8a2 (translocase of inner mitochondrial membrane 8A2) #3 under “viability (ATP), % of control”: 104
